Data published in PubChem BioAssay (EPA / NIEHS).
The source calls these results inconclusive, neither active nor inactive. Rule for the calls: active = hit-call score of the fitted dose curve at least 0.9, where 1 is the maximum; inconclusive = response in the unintended direction; inactive = score below 0.9.

Protein sequences, listed by entry. Tags and fused reporters are not part of them.
UniProt P43354, whole entry: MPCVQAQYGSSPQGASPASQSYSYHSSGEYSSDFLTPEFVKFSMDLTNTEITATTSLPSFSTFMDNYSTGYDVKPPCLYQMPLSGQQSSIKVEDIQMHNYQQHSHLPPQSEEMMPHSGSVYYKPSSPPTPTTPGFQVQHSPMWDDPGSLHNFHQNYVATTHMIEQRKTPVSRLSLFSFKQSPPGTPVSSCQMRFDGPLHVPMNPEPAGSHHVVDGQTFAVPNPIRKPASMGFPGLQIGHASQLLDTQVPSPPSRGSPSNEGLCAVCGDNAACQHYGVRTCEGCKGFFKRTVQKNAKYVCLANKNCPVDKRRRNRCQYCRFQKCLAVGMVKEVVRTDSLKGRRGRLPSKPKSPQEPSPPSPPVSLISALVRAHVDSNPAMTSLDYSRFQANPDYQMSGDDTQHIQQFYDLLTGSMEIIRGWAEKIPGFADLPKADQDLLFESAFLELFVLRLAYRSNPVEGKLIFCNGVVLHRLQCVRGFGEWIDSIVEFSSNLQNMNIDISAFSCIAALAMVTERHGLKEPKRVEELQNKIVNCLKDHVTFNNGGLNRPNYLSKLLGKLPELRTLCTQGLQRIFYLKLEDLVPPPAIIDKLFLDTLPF
UniProt P28702, whole entry: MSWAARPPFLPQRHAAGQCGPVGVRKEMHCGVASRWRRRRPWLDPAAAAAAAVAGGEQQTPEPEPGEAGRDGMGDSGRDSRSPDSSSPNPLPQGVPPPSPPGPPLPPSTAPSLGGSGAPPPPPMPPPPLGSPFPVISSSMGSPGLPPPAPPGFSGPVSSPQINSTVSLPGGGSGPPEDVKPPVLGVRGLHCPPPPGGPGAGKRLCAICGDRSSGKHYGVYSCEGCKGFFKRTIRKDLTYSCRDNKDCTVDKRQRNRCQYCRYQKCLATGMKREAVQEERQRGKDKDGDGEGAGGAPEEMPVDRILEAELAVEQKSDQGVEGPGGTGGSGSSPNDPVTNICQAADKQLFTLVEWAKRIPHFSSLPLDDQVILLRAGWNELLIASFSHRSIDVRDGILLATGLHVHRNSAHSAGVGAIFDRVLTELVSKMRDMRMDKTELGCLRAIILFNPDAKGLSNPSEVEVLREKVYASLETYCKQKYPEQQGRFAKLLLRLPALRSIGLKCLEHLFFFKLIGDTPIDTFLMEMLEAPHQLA
UniProt Q14994, whole entry: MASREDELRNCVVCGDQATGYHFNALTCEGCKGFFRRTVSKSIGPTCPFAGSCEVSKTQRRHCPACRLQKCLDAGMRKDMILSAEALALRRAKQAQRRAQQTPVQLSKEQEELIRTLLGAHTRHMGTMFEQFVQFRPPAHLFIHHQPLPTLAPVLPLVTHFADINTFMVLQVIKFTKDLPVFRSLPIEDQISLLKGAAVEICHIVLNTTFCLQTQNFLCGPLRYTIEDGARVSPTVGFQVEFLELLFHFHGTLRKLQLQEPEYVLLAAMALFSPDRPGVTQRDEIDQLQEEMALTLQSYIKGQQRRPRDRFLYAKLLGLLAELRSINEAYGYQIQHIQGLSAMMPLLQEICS
UniProt P11474, whole entry: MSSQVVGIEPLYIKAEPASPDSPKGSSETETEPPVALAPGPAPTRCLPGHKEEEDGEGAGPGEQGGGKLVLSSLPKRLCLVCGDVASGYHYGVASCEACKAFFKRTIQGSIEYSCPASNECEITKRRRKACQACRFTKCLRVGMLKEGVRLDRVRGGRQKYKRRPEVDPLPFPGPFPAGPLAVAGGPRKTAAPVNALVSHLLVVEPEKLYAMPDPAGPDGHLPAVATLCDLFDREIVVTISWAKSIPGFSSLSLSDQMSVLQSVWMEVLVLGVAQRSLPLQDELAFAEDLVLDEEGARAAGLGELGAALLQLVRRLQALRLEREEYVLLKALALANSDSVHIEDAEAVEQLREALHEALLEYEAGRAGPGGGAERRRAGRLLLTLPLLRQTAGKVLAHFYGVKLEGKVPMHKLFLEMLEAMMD
UniProt P62508, whole entry: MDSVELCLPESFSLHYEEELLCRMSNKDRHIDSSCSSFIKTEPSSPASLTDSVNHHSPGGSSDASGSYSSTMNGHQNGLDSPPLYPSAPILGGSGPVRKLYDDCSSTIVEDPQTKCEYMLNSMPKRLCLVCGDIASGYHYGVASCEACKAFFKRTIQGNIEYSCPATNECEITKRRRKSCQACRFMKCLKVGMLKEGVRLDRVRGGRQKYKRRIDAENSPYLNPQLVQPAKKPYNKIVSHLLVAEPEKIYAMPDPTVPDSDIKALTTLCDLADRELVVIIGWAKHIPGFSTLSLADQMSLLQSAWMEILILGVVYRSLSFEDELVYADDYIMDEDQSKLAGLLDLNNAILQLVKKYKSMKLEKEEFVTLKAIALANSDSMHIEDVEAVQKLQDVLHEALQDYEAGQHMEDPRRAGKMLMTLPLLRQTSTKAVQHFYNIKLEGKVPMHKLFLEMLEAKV
UniProt P04150, whole entry: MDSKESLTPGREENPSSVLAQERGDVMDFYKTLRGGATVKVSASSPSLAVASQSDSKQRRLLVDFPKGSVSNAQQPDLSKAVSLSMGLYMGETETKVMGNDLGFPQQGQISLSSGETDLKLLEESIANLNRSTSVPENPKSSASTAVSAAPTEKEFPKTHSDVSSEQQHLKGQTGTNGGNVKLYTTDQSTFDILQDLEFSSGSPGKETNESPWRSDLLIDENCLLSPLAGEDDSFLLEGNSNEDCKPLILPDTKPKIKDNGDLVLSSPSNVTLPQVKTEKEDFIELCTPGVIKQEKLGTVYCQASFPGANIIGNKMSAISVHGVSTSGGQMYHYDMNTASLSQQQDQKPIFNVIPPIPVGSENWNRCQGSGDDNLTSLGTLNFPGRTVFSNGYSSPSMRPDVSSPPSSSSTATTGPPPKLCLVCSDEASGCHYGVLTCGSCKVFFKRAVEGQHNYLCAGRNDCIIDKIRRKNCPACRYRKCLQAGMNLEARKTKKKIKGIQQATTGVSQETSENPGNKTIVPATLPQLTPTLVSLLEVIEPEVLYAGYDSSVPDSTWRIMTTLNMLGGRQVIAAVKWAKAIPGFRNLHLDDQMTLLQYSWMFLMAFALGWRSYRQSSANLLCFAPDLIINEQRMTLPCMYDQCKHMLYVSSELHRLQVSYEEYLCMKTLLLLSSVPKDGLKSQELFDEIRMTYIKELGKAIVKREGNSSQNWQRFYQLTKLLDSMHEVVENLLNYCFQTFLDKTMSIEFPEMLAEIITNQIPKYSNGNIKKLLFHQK
UniProt P55055, whole entry: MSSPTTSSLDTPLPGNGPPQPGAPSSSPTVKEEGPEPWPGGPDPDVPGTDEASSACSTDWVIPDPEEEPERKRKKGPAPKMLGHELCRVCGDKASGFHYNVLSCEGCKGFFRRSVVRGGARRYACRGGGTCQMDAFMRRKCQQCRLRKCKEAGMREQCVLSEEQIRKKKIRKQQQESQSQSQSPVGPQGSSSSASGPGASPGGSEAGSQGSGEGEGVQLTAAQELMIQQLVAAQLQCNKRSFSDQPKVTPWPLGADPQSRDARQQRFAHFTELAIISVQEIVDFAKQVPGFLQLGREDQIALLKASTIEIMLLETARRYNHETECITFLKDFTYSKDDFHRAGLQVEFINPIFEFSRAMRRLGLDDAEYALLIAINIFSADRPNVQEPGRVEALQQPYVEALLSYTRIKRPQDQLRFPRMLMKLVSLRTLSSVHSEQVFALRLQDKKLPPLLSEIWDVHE
UniProt P41235, whole entry: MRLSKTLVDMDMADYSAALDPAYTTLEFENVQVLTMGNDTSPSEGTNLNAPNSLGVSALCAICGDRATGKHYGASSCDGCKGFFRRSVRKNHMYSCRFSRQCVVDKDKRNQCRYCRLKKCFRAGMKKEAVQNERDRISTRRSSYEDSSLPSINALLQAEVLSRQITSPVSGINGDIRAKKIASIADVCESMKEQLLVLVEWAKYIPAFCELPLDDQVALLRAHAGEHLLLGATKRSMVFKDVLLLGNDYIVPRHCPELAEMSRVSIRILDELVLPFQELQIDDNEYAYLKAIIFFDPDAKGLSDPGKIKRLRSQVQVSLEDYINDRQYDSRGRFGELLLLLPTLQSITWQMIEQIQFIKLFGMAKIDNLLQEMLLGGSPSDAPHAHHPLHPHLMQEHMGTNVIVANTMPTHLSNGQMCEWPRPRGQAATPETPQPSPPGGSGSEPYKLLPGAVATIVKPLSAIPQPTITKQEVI
UniProt P10276, whole entry: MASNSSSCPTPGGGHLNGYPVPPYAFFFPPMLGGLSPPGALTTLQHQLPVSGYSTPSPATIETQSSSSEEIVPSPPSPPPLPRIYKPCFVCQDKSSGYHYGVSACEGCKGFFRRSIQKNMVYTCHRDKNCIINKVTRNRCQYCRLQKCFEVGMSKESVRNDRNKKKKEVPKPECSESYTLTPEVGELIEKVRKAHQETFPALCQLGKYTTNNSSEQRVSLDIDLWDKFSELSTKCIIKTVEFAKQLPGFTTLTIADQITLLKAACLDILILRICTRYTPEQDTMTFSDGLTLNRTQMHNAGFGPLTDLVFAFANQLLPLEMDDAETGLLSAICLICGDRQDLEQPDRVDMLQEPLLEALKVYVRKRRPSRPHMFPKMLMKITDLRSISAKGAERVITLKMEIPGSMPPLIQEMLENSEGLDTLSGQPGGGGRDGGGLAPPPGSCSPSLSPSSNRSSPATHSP
UniProt P13631, whole entry: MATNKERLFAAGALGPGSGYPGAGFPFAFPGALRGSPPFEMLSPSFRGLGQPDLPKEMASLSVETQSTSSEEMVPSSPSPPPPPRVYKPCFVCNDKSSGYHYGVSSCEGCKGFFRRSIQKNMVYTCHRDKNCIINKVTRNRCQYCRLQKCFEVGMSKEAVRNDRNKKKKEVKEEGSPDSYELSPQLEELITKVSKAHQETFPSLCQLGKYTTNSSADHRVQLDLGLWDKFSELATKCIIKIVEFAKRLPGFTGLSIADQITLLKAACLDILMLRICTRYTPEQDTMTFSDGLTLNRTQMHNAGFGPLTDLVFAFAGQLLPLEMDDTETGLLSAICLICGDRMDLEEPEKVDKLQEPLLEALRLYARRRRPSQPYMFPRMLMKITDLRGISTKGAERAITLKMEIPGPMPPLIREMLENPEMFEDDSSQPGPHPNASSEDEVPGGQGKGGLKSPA
UniProt Q92753, whole entry: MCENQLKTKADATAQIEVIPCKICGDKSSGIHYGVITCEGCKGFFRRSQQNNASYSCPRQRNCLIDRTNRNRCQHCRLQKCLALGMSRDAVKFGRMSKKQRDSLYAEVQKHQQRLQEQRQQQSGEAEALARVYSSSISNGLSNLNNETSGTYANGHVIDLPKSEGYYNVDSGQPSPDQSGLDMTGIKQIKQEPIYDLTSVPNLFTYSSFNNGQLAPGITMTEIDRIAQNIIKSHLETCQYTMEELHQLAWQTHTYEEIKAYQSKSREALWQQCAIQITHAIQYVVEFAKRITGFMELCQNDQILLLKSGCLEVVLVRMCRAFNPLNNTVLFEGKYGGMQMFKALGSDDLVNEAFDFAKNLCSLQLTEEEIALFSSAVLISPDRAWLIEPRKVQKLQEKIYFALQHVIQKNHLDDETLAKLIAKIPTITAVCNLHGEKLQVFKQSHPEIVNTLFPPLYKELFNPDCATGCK
UniProt P60484, whole entry: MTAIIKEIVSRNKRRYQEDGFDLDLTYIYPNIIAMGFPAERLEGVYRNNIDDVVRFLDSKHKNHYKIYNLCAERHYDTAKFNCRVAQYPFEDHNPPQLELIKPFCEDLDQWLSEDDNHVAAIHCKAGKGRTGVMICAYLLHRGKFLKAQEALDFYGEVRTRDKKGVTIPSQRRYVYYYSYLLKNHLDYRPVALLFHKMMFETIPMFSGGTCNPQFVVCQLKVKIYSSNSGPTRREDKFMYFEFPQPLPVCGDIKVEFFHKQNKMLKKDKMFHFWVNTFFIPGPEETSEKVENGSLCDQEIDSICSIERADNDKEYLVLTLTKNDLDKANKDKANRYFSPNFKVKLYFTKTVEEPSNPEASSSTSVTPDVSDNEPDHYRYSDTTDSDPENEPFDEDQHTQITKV
UniProt P21728, whole entry: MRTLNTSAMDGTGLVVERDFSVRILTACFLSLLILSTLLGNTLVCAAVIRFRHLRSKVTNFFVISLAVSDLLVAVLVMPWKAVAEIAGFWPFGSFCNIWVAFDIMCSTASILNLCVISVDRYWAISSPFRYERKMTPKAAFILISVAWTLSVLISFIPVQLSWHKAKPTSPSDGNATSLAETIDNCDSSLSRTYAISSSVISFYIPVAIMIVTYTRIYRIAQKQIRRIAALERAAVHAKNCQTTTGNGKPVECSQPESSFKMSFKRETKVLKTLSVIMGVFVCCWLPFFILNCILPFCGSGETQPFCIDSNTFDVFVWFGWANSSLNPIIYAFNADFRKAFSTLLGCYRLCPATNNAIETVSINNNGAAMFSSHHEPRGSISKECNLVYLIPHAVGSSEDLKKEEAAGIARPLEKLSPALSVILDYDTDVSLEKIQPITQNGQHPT

Experiments:
[1] = target: Oxysterols receptor LXR-alpha (Homo sapiens) (UniProt Q13133); experiment: ATG_LXRa_TRANS: Attagene TRANS-FACTORIAL HepG2 Assay for human Liver X Receptor alpha (LXRa) (AID 2282980); details: HepG2 Attagene TRANS reporter, LXRa transactivation
How it was run: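 Transfect HepG2 with GAL4-UAS multiplex reporter constructs (TRANS format, chimeric receptor-GAL4); treat 24 h; extract RNA, reverse-transcribe, PCR-amplify, FAM-label, HpaI-digest; resolve fragments by capillary electrophoresis. Upward response vs DMSO.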

[2] = target: Nuclear receptor subfamily 4 group A member 2 (Homo sapiens) (UniProt P43354); experiment: ATG_NURR1_TRANS: Attagene TRANS-FACTORIAL HepG2 Assay for human Nuclear Receptor Related Protein 1 (NURR1) (AID 2282985); details: HepG2 Attagene TRANS reporter, mRNA readout
How it was run: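 Reporter transcript induction, measured by RT-PCR with fluorescent labelling, HpaI digestion and capillary electrophoresis, after 24 hr dosing of human HepG2 cells transiently expressing an exogenous NR-Gal4 fusion with GAL4-UAS-driven reporters; DMSO as baseline.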

[3] = target: human Retinoid X Receptor beta (RXRb), RXRB (gene 6257) (UniProt P28702); experiment: ATG_RXRb_TRANS: Attagene TRANS-FACTORIAL HepG2 Assay for human Retinoid X Receptor beta (RXRb) (AID 2283013)
How it was run: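 Readout is reporter transcript induction after 24 h dosing. It is measured by RT-PCR of total RNA followed by fluorescent capillary electrophoresis. HepG2 liver cells carry transfected multiple reporter units driven by an exogenous RXRb-Gal4 fusion; activity is relative to DMSO.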

[4] = CCTE_Harrill_HTTr_CellCount_MCF7: CCTE's Cell Proliferation Assessment for the High-Throughput Transcriptomics (HTTr) Platform, Harrill Lab (AID 2284012);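 note: cells exposed to compound for six hours; intended direction is loss of nuclei count meaning fewer cells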
How it was run: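 Cell count from high-content imaging of Hoechst-labeled nuclei serves as viability/growth readout. Chemicals were applied to MCF-7 cells in eight concentrations for six hours, with fitting in both directions relative to DMSO.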

[5] = target: Nuclear receptor subfamily 1 group I member 3 (Homo sapiens) (UniProt Q14994); experiment: ATG_CAR_TRANS: Attagene TRANS-FACTORIAL HepG2 Assay for human Constitutive Androstane Receptor (CAR) (AID 2282969); details: HepG2 Attagene TRANS-FACTORIAL CAR reporter;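 note: activators raise reporter mRNA above DMSO so AC50 marks induction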
How it was run: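 Signal is reporter mRNA induction relative to DMSO, measured 24 h after dosing by RT-PCR with fluorescent primer extension and capillary electrophoresis. Human HepG2 liver cells carried transiently transfected chimeric NR-Gal4/GAL4-UAS reporter constructs.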

[6] = target: Steroid hormone receptor ERR1 (Homo sapiens) (UniProt P11474); experiment: ATG_ERRa_TRANS: Attagene TRANS-FACTORIAL HepG2 Assay for human Estrogen-Related Receptor alpha (ERRa) (AID 2282971); details: HepG2 Attagene TRANS reporter, ERRa transactivation
How it was run: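 Reporter transcript induction was quantified by RT-PCR and capillary electrophoresis of FAM-labelled, HpaI-cut products after 24 h treatment of HepG2 cells carrying transiently transfected GAL4-UAS reporter units and an exogenous ERRa-Gal4 fusion; activity scored as increase over DMSO.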

[7] = target: Androgen receptor (Homo sapiens) (UniProt P10275); experiment: ATG_AR_TRANS: Attagene TRANS-FACTORIAL HepG2 Assay for human Androgen Receptor (AR) (AID 2282973); details: HepG2 Attagene TRANS-FACTORIAL AR reporter transcription
How it was run: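 Steps: transfect HepG2 with multiple GAL4-UAS reporter transcription units (TRANS format, exogenous NR-Gal4 protein); dose 24 h; isolate RNA, reverse-transcribe, PCR-amplify, FAM-label, HpaI-digest; resolve by capillary electrophoresis. Positive direction vs DMSO.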

[8] = ATG_GAL4_TRANS: Attagene TRANS-FACTORIAL HepG2 Assay for GAL4 (Internal Marker) (AID 2282976); details: HepG2 Attagene TRANS GAL4 internal marker reporter
How it was run: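 First, HepG2 cells were transfected with reporter units under GAL4-UAS control. Next, they were treated with chemical for 24 h. Finally, RNA was reverse-transcribed, PCR-amplified, FAM-labelled and resolved by capillary electrophoresis, with induction scored against DMSO.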

[9] = target: Estrogen-related receptor gamma (Homo sapiens) (UniProt P62508); experiment: ATG_ERRg_TRANS: Attagene TRANS-FACTORIAL HepG2 Assay for human Estrogen-Related Receptor gamma (ERRg) (AID 2282977); details: HepG2 Attagene TRANS reporter, ERRg transactivation;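 note: hits increase reporter signal over DMSO so potencies reflect activators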
How it was run: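 Exogenous NR-Gal4 chimera activity measured as reporter transcript induction after 24 h in transiently transfected HepG2 cells. RNA reverse-transcribed, PCR-amplified, 6-FAM-labelled and resolved by capillary electrophoresis; increase over DMSO baseline.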

[10] = target: Glucocorticoid receptor (Homo sapiens) (UniProt P04150); experiment: ATG_GR_TRANS: Attagene TRANS-FACTORIAL HepG2 Assay for human Glucocorticoid Receptor (GR) (AID 2282978); details: HepG2 Attagene TRANS GR reporter, mRNA transcription;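 note: activators score as hits since higher reporter transcript over DMSO is fitted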
[11] = target: Bile acid receptor (Homo sapiens) (UniProt Q96RI1); experiment: ATG_FXR_TRANS: Attagene TRANS-FACTORIAL HepG2 Assay for Farnesoid X Receptor (FXR) (AID 2282979); details: HepG2 Attagene TRANS FXR-GAL4 reporter transcription;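 note: hits raise reporter mRNA above DMSO so AC50 marks FXR activation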
How it was run: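 Transient transfection of HepG2 with multiplexed GAL4-UAS reporter units; exogenous FXR-GAL4 chimera. Dose 24 h → TriZol RNA → oligo(dT) RT → PCR, 6-FAM primer extension, HpaI cut → CE. Gain vs DMSO.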

[12] = target: Oxysterols receptor LXR-beta (Homo sapiens) (UniProt P55055); experiment: ATG_LXRb_TRANS: Attagene TRANS-FACTORIAL HepG2 Assay for human Liver X Receptor beta (LXRb) (AID 2282981); details: HepG2 Attagene TRANS GAL4-LXRb reporter, mRNA
How it was run: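 After 24 h chemical treatment of transfected HepG2 cells carrying exogenous NR-Gal4 chimeras, reporter mRNA was quantified by fluorescent RT-PCR and capillary electrophoresis; activity taken as increase over DMSO controls.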

[13] = target: Hepatocyte nuclear factor 4-alpha (Homo sapiens) (UniProt P41235); experiment: ATG_HNF4a_TRANS: Attagene TRANS-FACTORIAL HepG2 Assay for human Hepatocyte Nuclear Factor 4 alpha (HNF4a) (AID 2282982); details: HepG2 HNF4a transactivation reporter, mRNA readout
How it was run: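 Activity of an exogenous HNF4a–Gal4 fusion scored as induced GAL4-UAS reporter transcripts after 24 h chemical exposure of transfected human HepG2 cells. Read-out via RT-PCR with 6-FAM labelling and capillary electrophoresis; rise over DMSO baseline.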

[14] = ATG_M_06_TRANS: Attagene TRANS-FACTORIAL HepG2 Assay for M06 Transcription Factor (Internal Marker) (AID 2282983); details: HepG2 Attagene TRANS M06 internal marker reporter;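 note: reporter transcript level by RT-PCR then capillary electrophoresis fluorescence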
How it was run: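 Background control endpoint: reporter mRNA from transiently transfected HepG2 after 24 h dosing, detected by RT-PCR with capillary electrophoresis fluorescence. Analysed for gain versus DMSO.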

[15] = target: Retinoic acid receptor alpha (Homo sapiens) (UniProt P10276); experiment: ATG_RARa_TRANS: Attagene TRANS-FACTORIAL HepG2 Assay for human Retinoic Acid Receptor alpha (RARa) (AID 2283005);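 note: potency for increased reporter signal meaning RARa activation over DMSO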
How it was run: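 Reporter transcripts, measured by RT-PCR with fluorescent labeling and capillary electrophoresis after 24 h dosing, reflect activity of an exogenous human RARa–GAL4 fusion in transiently transfected HepG2. Fitted for increase relative to DMSO.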

[16] = target: Nuclear receptor subfamily 1 group I member 2 (Homo sapiens) (UniProt O75469); experiment: ATG_PXR_TRANS: Attagene TRANS-FACTORIAL HepG2 Assay for human Pregnane X Receptor (PXR) (AID 2283008)
How it was run: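 Multiplexed TRANS reporter panel in HepG2; this component tracks PXR-Gal4-driven reporter mRNA after 24 h dosing, measured by RT-PCR with capillary electrophoresis fluorescence, fitted against DMSO.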

[17] = target: human Retinoic Acid Receptor gamma (RARg), RARG (gene 5916) (UniProt P13631); experiment: ATG_RARg_TRANS: Attagene TRANS-FACTORIAL HepG2 Assay for human Retinoic Acid Receptor gamma (RARg) (AID 2283009)
How it was run: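 Transactivation of exogenous RARg-Gal4 fusion measured as reporter transcript induction after 24 h in transfected HepG2 cells. RNA reverse-transcribed, amplified, fluorescently labeled and resolved by capillary electrophoresis; increase relative to DMSO.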

[18] = target: human RAR-related Orphan Receptor beta (RORb), RORB (gene 6096) (UniProt Q92753); experiment: ATG_RORb_TRANS: Attagene TRANS-FACTORIAL HepG2 Assay for human RAR-related Orphan Receptor beta (RORb) (AID 2283010);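 note: potency for increased reporter mRNA meaning activation of RORb-Gal4 chimera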
How it was run: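 Read-out is reporter mRNA induction, quantified by RT-PCR with fluorescent capillary electrophoresis, 24 h post-dose in transiently transfected HepG2 expressing exogenous NR-Gal4 chimera. Activity fitted upward versus DMSO.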

[19] = target: human Phosphatase and Tensin Homolog (PTEN), PTEN (gene 5728) (UniProt P60484); experiment: NVS_ENZ_hPTEN: NovaScreen (NVS) Enzymatic Assay for human Phosphatase and Tensin Homolog (PTEN) (AID 2283203)
How it was run: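 Loss of fluorescent product signal after mobility-shift separation reports PTEN activity, recombinant human enzyme, 1 h after compound addition. Single 25 uM duplicate screen, then concentration-response on actives; DMSO baseline.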

[20] = target: D(1A) dopamine receptor (Homo sapiens) (UniProt P21728); experiment: NVS_GPCR_hDRD1: NovaScreen (NVS) G Protein-Coupled Receptor Assay for human Dopamine Receptor D1 (DRD1) (AID 2283269)
How it was run: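 Extracted HEK293 DRD1 is incubated 1 h with compound and a tritiated or iodinated radioligand, then filtered and counted. Screening runs 25 uM in duplicate with on-plate positive and negative controls.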

Measured: AC50

CCCCOP(OCCCC)OCCCC
inconclusive: [1] | [2] | [3]

[NH4+].[O-][Cl+3]([O-])([O-])[O-]
inconclusive: [4]

CN(C)CCCl
inconclusive: [5] 160 µM | [6] 48.7 µM | [7] | [8] 180 µM | [9] 146 µM | [10] 0.245 µM | [11] 0.0823 µM | [12] 0.119 µM | [13] 23.3 µM | [14] | [2] 47.6 µM | [15] 19.8 µM | [16] 178 µM | [17] | [18] 175 µM | [3] | [19] 0.186 µM | [20] 2.25 µM
